These are yes or no findings as the source states them, for the method shown. Binding seen in cells or lysates may run through a third protein.
Target: VIN3-GFP R556D/I575D (Arabidopsis thaliana) (UniProt Q9FIE3)
Experiment: co-IP; GFP-Trap immunoprecipitates from extracts of vernalized plants with VIN3-GFP transgenes, immunoblot probed with anti-FIE; IP buffer 50 mM Tris-HCl pH 7.5, 150 mM NaCl, 0.5% NP-40, 1% Triton-X; non-transgenic Col-FRI as negative control

Protein sequences, listed by entry. Tags and fused reporters are not part of them. Lines headed by an entry give the natural chain unless they say otherwise; changes in a name come on top.
UniProt Q9FIE3: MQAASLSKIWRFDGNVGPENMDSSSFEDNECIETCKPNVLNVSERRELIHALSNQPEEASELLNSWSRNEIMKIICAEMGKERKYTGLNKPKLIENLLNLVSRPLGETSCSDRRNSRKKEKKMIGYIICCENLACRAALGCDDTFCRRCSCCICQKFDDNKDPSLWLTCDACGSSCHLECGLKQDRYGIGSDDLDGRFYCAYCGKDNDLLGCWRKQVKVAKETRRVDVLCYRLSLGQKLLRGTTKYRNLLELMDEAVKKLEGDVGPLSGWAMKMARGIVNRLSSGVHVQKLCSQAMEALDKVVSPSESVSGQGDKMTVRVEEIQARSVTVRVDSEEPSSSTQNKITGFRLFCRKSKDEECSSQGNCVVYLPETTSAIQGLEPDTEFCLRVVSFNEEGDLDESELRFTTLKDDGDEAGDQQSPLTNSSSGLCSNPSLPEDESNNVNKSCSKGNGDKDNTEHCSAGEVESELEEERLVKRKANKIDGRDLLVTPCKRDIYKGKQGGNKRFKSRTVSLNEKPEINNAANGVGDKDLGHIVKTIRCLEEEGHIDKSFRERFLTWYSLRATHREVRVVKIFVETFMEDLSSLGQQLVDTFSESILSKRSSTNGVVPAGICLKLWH

B1: FIE (protein, UniProt Q9LT47 1-369)
chain: MSKITLGNESIVGSLTPSNKKSYKVTNRIQEGKKPLYAVVFNFLDARFFDVFVTAGGNRITLYNCLGDGAISALQSYADEDKEESFYTVSWACGVNGNPYVAAGGVKGIIRVIDVNSETIHKSLVGHGDSVNEIRTQPLKPQLVITASKDESVRLWNVETGICILIFAGAGGHRYEVLSVDFHPSDIYRFASCGMDTTIKIWSMKEFWTYVEKSFTWTDDPSKFPTKFVQFPVFTASIHTNYVDCNRWFGDFILSKSVDNEILLWEPQLKENSPGEGASDVLLRYPVPMCDIWFIKFSCDLHLSSVAIGNQEGKVYVWDLKSCPPVLITKLSHNQSKSVIRQTAMSVDGSTILACCEDGTIWRWDVITK
Question: B1 was tested. Which binding did it give?
Answer: Its binding is “no binding”.

Source: paper PMC7618248, “VEL-dependent polymerization maintains the chromatin association of Polycomb proteins for the switch to epigenetic silencing” (Molecular cell, 2025)
